Data from doi:10.1101/521658.
No constants are given. Whether binding was seen depends on the method and setting. In cells and extracts the contact can be indirect. Here binding means that the protein was enriched with, or labelled near, the bait; the list need not be complete. For some assays here: No binding means not detected with the bait.

Tests used:
[1] = target: CaM of the CaM matrix; experiment: affinity purification with mass spectrometry
[2] = target: CaM of the CaM matrix; experiment: condition: only with an excess of the Ca2+ chelator EGTA

binding [1]: binds
binding [2]: no binding
B1: NADKc-1 (NAD+ kinase CaM-1), product of the At1g04280 gene, endogenous in A. thaliana seedlings (enzyme, UniProt Q0WUY1 1-534)
chain: MVKPLGEGTRDVSNVGCKSVDLLLASLGGLAAAVAAAYAGELLLRRRKLDQGASMGYKDVKIAPLIERKDSGRRSNLERFSHYVARQLGFEDPNEYPQLCKLANGYLLKTKGYDENVDEYLENEAERDSLYVHLLEEFDRCILTYFSFNWTQSSNLISQALSDESDQKVPKLKDFVMAATRKQRFERVTKDLKVKRVISTLVEEMRVIGSGSSEPHCTEVMSPVAHNKRSPVLLLMGGGMGAGKSTVLKDIFLESFWSEAQADAVVIEADAFKETDVIYRALSSRGHHDDMLQTAELVHQSSTDAASSLLVTALNDGRDVIMDGTLSWEPFVEQMIEMARNVHKQKYRMGEGYKVSEEGTITEKYWEEEEEETKENGKQQNLKPYRIELVGVVCDAYLAVARGIRRALMVKRAVRVKPQLNSHKRFANAFPKYCELVDNARLYCTNAVGGPPRLIAWKDGNSKLLVDPEDIDCLKRVSSLNPDAESIYELYPDPSQLSKPGSVWNDVVLVPSRPKVQKELSDAIRRIEKAQPKN
